Measured values taken from patent EP2845863A1, “Mathanococcus jannaschii protease and its use” (Consejo Superior de Investigaciones Cientificas (CSIC), priority 2013, dated 2015).
Some entries share one result that the patent states for a list of compounds.

Biological target: T1, Methanococcus jannaschii selecase, wild type, SEQ ID No: 1 (Methanocaldococcus jannaschii, UniProt Q58610)
T1 sequence (Q58610 1-110): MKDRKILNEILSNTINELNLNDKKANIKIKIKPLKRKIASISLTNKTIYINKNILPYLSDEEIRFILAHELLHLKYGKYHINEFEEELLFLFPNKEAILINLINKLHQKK
Assay: Cleavage of bovine milk α-casein assessed by SDS-PAGE in the presence of inhibitors (Fig. 1A)
Assay type: biochemical
Conditions: inhibitor 1 mM; α-casein incubated overnight at 37°C with selecase at 25 µg/ml; Coomassie-stained SDS-PAGE

SMILES: c1cnc2c(c1)ccc1cccnc12 [1,10-phenanthroline]
- Activity against αs1-casein in the presence of inhibitor: abolished activity
